This data set can be described thus: GSH reactivity assay for model compounds (LC/MS). It is filed as physicochemical. Conditions: 5 mM GSH, 100 μM acrylamide, 37 °C.

In the case of `C=C(COC(=O)Oc1ccc([N+](=O)[O-])cc1)C(=O)NCc1ccccc1` [1m], the “Substitution/Addition (reaction type with GSH)” value was “preferably underwent the substitution reaction”.

The values are drawn from PMC8041284, “Tunable Methacrylamides for Covalent Ligand Directed Release Chemistry” (Journal of the American Chemical Society, 2021).
